# According to PubChem BioAssay AID504834 (National Center for Advancing Translational Sciences (NCATS), 2011):
# In all, about 320,000 compounds went through this assay and about 22,000 (6.9%) were called active. This list was built around the results that the source calls inconclusive (neither active nor inactive); the mix of calls is not that of the screen. Calls come from the whole dose curve; as a rule, active = well fitted inhibition curve with a large enough effect; inconclusive = small, poorly fitted or top-dose-only effect, or another doubt; inactive = no such curve, though single readings can be large or run the other way. Potencies beside an inconclusive call are fits to weak or partial responses and may not hold up.
# Assay: Primary qHTS for delayed death inhibitors of the malarial parasite plastid, 96 hour incubation
# Conditions: P. falciparum luciferase reporter growth; series mostly up to 28.7 µM; activity change, negative = inhibition: at the top concentration
# Procedure, shortened: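 96 h incubation, 37 C, 5% CO2, of luciferase-reporter P. falciparum-infected RBCs (2% hematocrit, 0.05% parasitemia final) with test compounds; endpoint luminescence.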
# % is set by controls: 0 for no effect and ±100 for the full control effect; potency is the fitted concentration of half-maximal effect.
Structure (SMILES),Potency,"activity change, negative = inhibition"
Cc1c(C(=O)N2CCCCC2)c(S(=O)(=O)NCc2ccc(N(C)C)cc2)c(C)n1C,active: 0.828 µM,–
S=c1nc(COc2ccccc2)[nH]c2ccccc12,"inconclusive: 3.7 µM [inhibitor, partial curve, poor fit]",–
COc1ccccc1OCC(=O)Nc1ccc(S(=O)(=O)N(C)c2ccccc2)cc1,"inconclusive: 18.5 µM [inhibitor, single point]",–
CCCCCCCCC(=O)NCc1ccc(O)c(OC)c1,inactive,–
CCOC(=O)C1CCN(C(c2cccc(F)c2)c2sc3nc(C)nn3c2O)CC1 (stereo not given),"inconclusive: 13.1 µM [inhibitor, partial curve]",–
CCN(CC)c1ccc(S(=O)(=O)N2CCOCC2)cc1NC(=O)CN1C(=O)NC2(CCCC2)C1=O,"inconclusive: 8.28 µM [inhibitor, partial curve, poor fit]",–
O=C(COC(=O)Cc1c(F)cccc1Cl)NC1CCS(=O)(=O)C1 (stereo not given),–,inactive: -0.116%
Cn1c(=O)c2c(ncn2CC(=O)OCC(=O)NC2CCCc3ccccc32)n(C)c1=O (stereo not given),"inconclusive: 18.5 µM [inhibitor, single point]",–
CN(C)CCSc1nc(O)c(-c2ccccc2)c(=O)n1-c1ccccc1,–,inactive: 33.5%
O=C(Nc1cccnc1Cl)c1cc2c(s1)-c1ccccc1OC2,"inconclusive: 0.37 µM [inhibitor, full curve]",–
CN(C)c1ncnc2sc(-c3ccccc3)cc12,–,inactive: 38.8%
S=C1Cc2ccccc2N1,"inconclusive: 1.04 µM [inhibitor, full curve]",–
O=S(=O)(NCC1CCN(Cc2ccccc2)CC1)c1ccccc1C(F)(F)F,–,inactive: -10%
Cc1ccc(NC(=O)C2CCN(S(=O)(=O)c3ccc4c(c3)NC(=O)CO4)CC2)cc1,active: 13.1 µM,–
O=C(CSc1nnc2ccc(-c3ccncc3)nn12)c1cccs1,"inconclusive: 18.5 µM [inhibitor, single point]",–
CCOC(=O)C1CCCN(C(=O)c2cc3cc(Br)ccc3oc2=O)C1 (stereo not given),"inconclusive: 18.5 µM [inhibitor, single point]",–
Cc1ccc(C)c(N(CC(=O)NCc2ccc3c(c2)OCO3)C(=O)CCC(=O)Nc2ccccn2)c1,"inconclusive: 18.5 µM [inhibitor, single point]",–
Cc1ccc(NCc2nc3ccccc3n2C)c(C)c1,–,inactive: -26.3%
O=C(Nc1nnc(-c2ccc(Cl)cc2)o1)c1ccccc1Br,"inconclusive: 18.5 µM [inhibitor, single point]",–
CC1CN(Cc2nc3c(c(=O)n(C)c(=O)n3C)n2Cc2ccccc2)CC(C)O1 (stereo not given),"inconclusive: 13.1 µM [inhibitor, single point]",–

# Entries from the list above that have a thiophene ring, fused or not:
Structure (SMILES),Potency,"activity change, negative = inhibition"
O=C(Nc1cccnc1Cl)c1cc2c(s1)-c1ccccc1OC2,"inconclusive: 0.37 µM [inhibitor, full curve]",–
CN(C)c1ncnc2sc(-c3ccccc3)cc12,–,inactive: 38.8%
O=C(CSc1nnc2ccc(-c3ccncc3)nn12)c1cccs1,"inconclusive: 18.5 µM [inhibitor, single point]",–
